From the supplement of paper PMC10331698
± gives the standard deviation of the averaged measurements. Most values lie at the level of the controls, where differences are scatter.

Columns and labels:
Assay in all cases: level (log10 ratio to DMSO vehicle control); higher = higher biomarker level / cell amount than vehicle control
[1] = compound: O=C(O)C(F)(F)C(F)(F)C(F)(F)C(F)(F)C(F)(F)F [Perfluorohexanoic acid] (in DMSO)
Experimental: (§1)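 BioMAP Diversity Plus panel of 12 human primary cell co-culture systems (3C, 4H, LPS, SAg, BT, BF4T, BE3C, CASM3C, HDF3CGF, KF3CT, MyoF, Mphg). Compounds were added 1 h before stimulation and left for 24 h (MyoF 48 h; BT 72 h for soluble read-outs or 6 d for IgG). Biomarkers were read by ELISA, cytotoxicity by SRB, PBMC viability and proliferation by Alamar Blue. Each well value was divided by the mean of 8 DMSO control wells on the same plate and log10 transformed; duplicate blinded samples were tested at 4 concentrations.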

[2] = compound: FC(F)(F)C(F)(F)C(F)(F)C(F)(F)CCI [1H,1H,2H,2H-Perfluorohexyl iodide] (in DMSO); conditions: 2200 nM
Experimental: as §1

[3] = compound: OCC(F)(F)C(F)(F)C(F)(F)C(F)(F)C(F)(F)C(F)(F)CO [1H,1H,8H,8H-Perfluorooctane-1,8-diol] (in DMSO); conditions: 2200 nM
Experimental: as §1

[4] = compound: O=C(O)C(F)(OC(F)(F)C(F)(F)C(F)(F)F)C(F)(F)F [Ammonium perfluoro-2-methyl-3-oxahexanoate] (in Water)
Experimental: as §1

[5] = compound: O=C(O)C(F)(F)C(F)(F)C(F)(F)C(=O)O [Hexafluoroglutaric acid] (in DMSO)
Experimental: as §1

[6] = compound: O=S(=O)(O)C(F)(F)C(F)(F)C(F)(F)C(F)(F)F [Perfluorobutanesulfonic acid] (in DMSO)
Experimental: as §1

[7] = compound: OCCCC(F)(F)C(F)(F)C(F)(F)C(F)(F)C(F)(F)C(F)(F)C(F)(F)C(F)(F)F [3-(Perfluorooctyl)propanol] (in DMSO); conditions: 2200 nM
Experimental: as §1

[8] = compound: OCC(F)(F)C(F)(F)C(F)(F)C(F)F [1H,1H,5H-Perfluoropentanol] (in DMSO); conditions: 2200 nM
Experimental: as §1

[9] = compound: CNS(=O)(=O)C(F)(F)C(F)(F)C(F)(F)C(F)(F)C(F)(F)C(F)(F)C(F)(F)C(F)(F)F [N-Methylperfluorooctanesulfonamide] (in DMSO); conditions: 2200 nM
Experimental: as §1

[10] = compound: FC(F)(F)C(F)(F)CNCC(F)(F)C(F)(F)F [Bis(1H,1H-perfluoropropyl)amine] (in DMSO); conditions: 2200 nM
Experimental: as §1

[11] = compound: C=C(C)C(=O)OCCC(F)(F)C(F)(F)C(F)(F)C(F)(F)C(F)(F)C(F)(F)F [6:2 Fluorotelomer methacrylate] (in DMSO); conditions: 2200 nM
Experimental: as §1

[12] = compound: O=C(O)C(F)(F)C(F)(F)C(F)(F)OC(F)(C(F)(F)F)C(F)(F)F [Perfluoro-4-isopropoxybutanoic acid] (in DMSO); conditions: 2200 nM
Experimental: as §1

[13] = compound: OCC(F)(F)OC(F)(F)C(F)(F)OC(F)(F)CO [1H,1H,8H,8H-Perfluoro-3,6-dioxaoctane-1,8-diol] (in DMSO); conditions: 2200 nM
Experimental: as §1

[14] = compound: FC(F)(F)COC(OCC(F)(F)F)OCC(F)(F)F [tris(Trifluoroethoxy)methane] (in DMSO); conditions: 2200 nM
Experimental: as §1

[15] = compound: O=C(O)CCC(F)(F)C(F)(F)C(F)(F)F [3:3 Fluorotelomer carboxylic acid] (in DMSO); conditions: 2200 nM
Experimental: as §1

[16] = compound: OCC(F)(F)C(F)(F)C(F)(F)C(F)(F)C(F)(F)C(F)(F)F [6:1 Fluorotelomer alcohol] (in DMSO); conditions: 2200 nM
Experimental: as §1

[17] = compound: O=C(O)C(F)(OC(F)(F)C(F)(OC(F)(F)C(F)(OC(F)(F)C(F)(F)C(F)(F)F)C(F)(F)F)C(F)(F)F)C(F)(F)F [Perfluoro-(2,5,8-trimethyl-3,6,9-trioxadodecanoic)acid] (in DMSO); conditions: 370 nM
Experimental: as §1

Test System | level (log10) ([1]; 2200 nM) | level (log10) ([1]; 6700 nM) | level (log10) ([1]; 20000 nM) | level (log10) ([1]; 60000 nM) | level (log10) [2] | level (log10) [3] | level (log10) ([4]; 2200 nM) | level (log10) ([4]; 6700 nM) | level (log10) ([4]; 20000 nM) | level (log10) ([4]; 60000 nM) | level (log10) ([5]; 2200 nM) | level (log10) ([5]; 6700 nM) | level (log10) ([5]; 20000 nM) | level (log10) ([5]; 60000 nM) | level (log10) ([6]; 2200 nM) | level (log10) ([6]; 6700 nM) | level (log10) ([6]; 20000 nM) | level (log10) ([6]; 60000 nM) | level (log10) [7] | level (log10) [8] | level (log10) [9] | level (log10) [10] | level (log10) [11] | level (log10) [12] | level (log10) [13] | level (log10) [14] | level (log10) [15] | level (log10) [16] | level (log10) [17]
MyoF:CXCL8/IL-8 | 0.0005 ± 0.0078 | -0.0015 ± 0.016 | -0.0075 ± 0.026 | -0.015 ± 0.05 | 0.0625 ± 0.054 | -0.0075 ± 0.015 | -0.0405 ± 0.056 | -0.0355 ± 0.032 | -0.0385 ± 0.011 | -0.045 ± 0.011 | 0.018 ± 0.0042 | -0.0085 ± 0.0021 | -0.0225 ± 0.013 | -0.0015 ± 0.021 | 0.039 ± 0.054 | 0.007 ± 0.042 | 0.0425 ± 0.021 | 0.0665 ± 0.0064 | -0.0075 ± 0.0064 | 0.015 ± 0.11 | 0.002 ± 0.057 | 0.003 ± 0.0057 | 0.026 ± 0.068 | 0.028 ± 0.0028 | 0.0485 ± 0.025 | -0.014 ± 0.018 | -0.0005 ± 0.044 | 0.007 ± 0.018 | 0.0265 ± 0.016
MyoF:Collagen I | -0.005 ± 0.0042 | -0.01 ± 0.0057 | -0.0095 ± 0.0092 | -0.0025 ± 0.011 | 0.01 ± 0.016 | 0.0015 ± 0.046 | 0.008 ± 0.0071 | -0.0135 ± 0.061 | -0.024 ± 0.024 | -0.027 ± 0.031 | 0.0055 ± 0.025 | -0.003 ± 0.013 | -0.0005 ± 0.016 | 0.011 ± 0.0014 | 0.0165 ± 0.028 | -0.017 ± 0.023 | -0.004 ± 0.0014 | -0.0235 ± 0.0064 | -0.0065 ± 0.035 | 0.013 ± 0.035 | 0.0095 ± 0.022 | -0.008 ± 0.0099 | 0.0105 ± 0.028 | 0.0115 ± 0.026 | -0.01 ± 0.042 | -0.0135 ± 0.018 | 0.0065 ± 0.016 | -0.008 ± 0.0057 | -0.023 ± 0.0042
MyoF:Collagen III | 0.004 | 0.0075 ± 0.012 | 0.003 ± 0.02 | 0.0105 ± 0.0092 | -0.002 ± 0.0014 | -0.0045 ± 0.0078 | -0.008 ± 0.0042 | 0.0135 ± 0.0035 | 0.006 ± 0.023 | -0.035 ± 0.034 | 0.0105 ± 0.005 | 0.006 ± 0.0042 | 0.0035 ± 0.005 | 0.0055 ± 0.00071 | 0.0135 ± 0.025 | 0.02 ± 0.024 | 0.0265 ± 0.0064 | 0.0145 ± 0.0064 | -0.0155 ± 0.023 | 0.024 ± 0.016 | 0.003 ± 0.0085 | -0.013 ± 0.025 | 0.0285 ± 0.021 | 0.008 | -0.0235 ± 0.0064 | -0.015 ± 0.0028 | -0.007 ± 0.016 | -0.0005 ± 0.015 | -0.007 ± 0.0085
MyoF:Collagen IV | 0.025 ± 0.033 | 0.0245 ± 0.0064 | 0.0165 ± 0.0064 | 0.0345 ± 0.037 | 0.016 ± 0.0042 | 0.022 ± 0.033 | 0.012 ± 0.023 | -0.013 ± 0.0057 | 0.0045 ± 0.011 | 0.0105 ± 0.012 | -0.006 ± 0.018 | -0.004 ± 0.013 | 0.002 ± 0.021 | -0.0055 ± 0.0064 | 0.023 ± 0.045 | 0.04 ± 0.0057 | 0.0055 ± 0.033 | 0.016 ± 0.013 | 0 ± 0.0014 | 0.015 ± 0.034 | 0.0775 ± 0.032 | -0.034 ± 0.017 | 0.0095 ± 0.06 | 0.015 ± 0.013 | 0.006 ± 0.024 | 0.0195 ± 0.012 | -0.026 ± 0.0057 | -0.03 ± 0.0028 | 0.0235 ± 0.0092
MyoF:Decorin | -0.0215 ± 0.0092 | -0.0215 ± 0.015 | 0.0005 ± 0.023 | 0.024 ± 0.013 | 0.007 ± 0.02 | 0.003 ± 0.078 | 0.001 ± 0.033 | -0.048 ± 0.023 | -0.02 ± 0.0085 | -0.024 ± 0.013 | 0.0035 ± 0.0078 | -0.0145 ± 0.0078 | -0.0225 ± 0.0064 | -0.031 ± 0.0099 | 0.033 | 0.0315 ± 0.012 | 0.03 ± 0.016 | 0.083 ± 0.013 | 0.0185 ± 0.042 | 0.0285 ± 0.079 | 0.0225 ± 0.052 | -0.004 ± 0.0071 | 0.007 ± 0.0014 | 0.0145 ± 0.047 | -0.002 ± 0.0014 | -0.0155 ± 0.012 | -0.0255 ± 0.016 | 0.0175 ± 0.013 | -0.0055 ± 0.011
MyoF:MMP-1 | 0.0095 ± 0.029 | -0.0115 ± 0.0035 | -0.0055 ± 0.019 | 0.0235 ± 0.025 | 0.033 ± 0.044 | 0.013 ± 0.099 | 0.0225 ± 0.04 | -0.0025 ± 0.0064 | 0.0185 ± 0.0092 | -0.0095 ± 0.0064 | 0.0165 ± 0.0078 | 0 ± 0.0085 | -0.0115 ± 0.012 | -0.008 ± 0.014 | 0.054 ± 0.052 | 0.0385 ± 0.005 | 0.065 ± 0.0071 | 0.0885 ± 0.0035 | 0.0105 ± 0.08 | -0.0415 ± 0.0092 | -0.0045 ± 0.08 | 0.016 ± 0.064 | 0.0575 ± 0.032 | 0.0285 ± 0.061 | 0.0045 ± 0.074 | 0.01 ± 0.078 | 0.0165 ± 0.076 | 0.006 ± 0.055 | -0.0165 ± 0.05
MyoF:PAI-I | -0.006 ± 0.0014 | 0.0025 ± 0.005 | 0.002 ± 0.0028 | 0.009 | 0.0095 ± 0.0035 | 0.0135 ± 0.0064 | -0.017 ± 0.02 | -0.0005 ± 0.005 | -0.0025 ± 0.0064 | -0.019 ± 0.011 | -0.0015 ± 0.0021 | -0.0025 ± 0.021 | -0.0035 ± 0.015 | 0.003 | -0.008 ± 0.0085 | -0.011 ± 0.013 | 0.0065 ± 0.0078 | 0.0005 ± 0.0064 | -0.0065 ± 0.013 | -0.006 ± 0.018 | 0.011 ± 0.0028 | -0.007 ± 0.0057 | -0.01 ± 0.0042 | 0.0035 ± 0.012 | -0.0105 ± 0.021 | -0.0135 ± 0.015 | -0.006 ± 0.0099 | 0.001 ± 0.0071 | 0.006 ± 0.025
